Measured values from patent publication US20050064014A1, “Use of cystathionine” (priority 2001, published 2005).

Assay: Odor after heat treatment of supplemented SONDALIS (physicochemical and organoleptic behavior)
Conditions: for Additional odor: added to SONDALIS, 41 mM, 121° C. for 15 minutes in an autoclave
Protocol: Cystathionine is found to be a very stable amino acid. It was tested while added to SONDALIS (trademark), and compared to cysteine in equivalent molar concentration (41 mM, i.e. 5 g of cysteine/L). SONDALIS is an enteral nutrition product comprising 35% of the energy in the form of lipids, 50% in the form of carbohydrates, in particular of maltodextrins, and 15% in the form of proteins, and also vitamins, including vitamins A, B6, B12, C, D, E and K, and mineral salts such as phosphorus and magnesium, inter alia. 1.0 mL of supplemented SONDALIS was brought to 121° C. for 15 minutes in an autoclave. This represents a strong heat treatment, the procedure having lasted more than two hours from the beginning of the handling to the temperature reduction phase. These harsh conditions are confirmed by a thick consistency and a brown color obtained on the product.
The comparative results appear in the table below.
The absence of odor in the cystathionine-supplemented product is a first important element which proves its compatibility with an oral formula, in particular, insofar as the oxidation and decomposition of compounds containing sulfur produce derivatives with a strong unpleasant odor.

Compound | Additional odor | release of H2S (added to an enteral solution)
N[C@@H](CCSC[C@H](N)C(=O)O)C(=O)O [L-cystathionine, cystathionine] | No additional odor | no release of H2S
N[C@@H](CS)C(=O)O [L-cysteine, cysteine] | Sulfur-based additional odor | –
